Drawing on paper PMC3996523, this text covers binding for two substances.

Protein sequences, listed by entry. Tags and fused reporters are not part of them. Residues count along the entry.
UniProt O95831, residues 102-613: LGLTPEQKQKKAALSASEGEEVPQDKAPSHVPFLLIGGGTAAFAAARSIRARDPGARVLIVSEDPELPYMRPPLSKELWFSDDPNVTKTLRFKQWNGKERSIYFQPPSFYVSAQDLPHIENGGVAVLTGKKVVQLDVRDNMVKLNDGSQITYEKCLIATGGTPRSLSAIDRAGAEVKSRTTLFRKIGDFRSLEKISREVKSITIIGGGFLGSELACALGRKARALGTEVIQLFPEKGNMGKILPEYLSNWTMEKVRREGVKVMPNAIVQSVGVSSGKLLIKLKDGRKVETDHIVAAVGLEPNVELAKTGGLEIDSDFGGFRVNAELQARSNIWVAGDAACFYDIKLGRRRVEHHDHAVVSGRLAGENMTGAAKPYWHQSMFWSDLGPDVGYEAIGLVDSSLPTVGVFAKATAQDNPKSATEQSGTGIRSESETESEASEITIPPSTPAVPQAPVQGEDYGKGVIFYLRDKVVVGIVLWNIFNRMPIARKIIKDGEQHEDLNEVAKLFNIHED
UniProt P08670: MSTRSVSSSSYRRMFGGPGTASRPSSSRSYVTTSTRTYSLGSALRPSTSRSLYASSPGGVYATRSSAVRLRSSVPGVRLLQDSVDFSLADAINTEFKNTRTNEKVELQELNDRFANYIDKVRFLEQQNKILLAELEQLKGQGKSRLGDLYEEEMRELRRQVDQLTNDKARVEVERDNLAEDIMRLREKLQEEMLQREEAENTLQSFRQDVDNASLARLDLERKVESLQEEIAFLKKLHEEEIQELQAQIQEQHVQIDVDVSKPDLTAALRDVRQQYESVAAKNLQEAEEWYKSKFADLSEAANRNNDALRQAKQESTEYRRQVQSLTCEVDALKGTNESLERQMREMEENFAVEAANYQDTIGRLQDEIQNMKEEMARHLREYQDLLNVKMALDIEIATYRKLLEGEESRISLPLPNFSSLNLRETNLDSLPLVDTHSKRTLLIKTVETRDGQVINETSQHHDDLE

The target of experiment [1] is T1, peptidylarginine deiminase 3 (PAD3) (human (endogenous in hNSCs)) (UniProt Q9ULW8).
T1 sequence: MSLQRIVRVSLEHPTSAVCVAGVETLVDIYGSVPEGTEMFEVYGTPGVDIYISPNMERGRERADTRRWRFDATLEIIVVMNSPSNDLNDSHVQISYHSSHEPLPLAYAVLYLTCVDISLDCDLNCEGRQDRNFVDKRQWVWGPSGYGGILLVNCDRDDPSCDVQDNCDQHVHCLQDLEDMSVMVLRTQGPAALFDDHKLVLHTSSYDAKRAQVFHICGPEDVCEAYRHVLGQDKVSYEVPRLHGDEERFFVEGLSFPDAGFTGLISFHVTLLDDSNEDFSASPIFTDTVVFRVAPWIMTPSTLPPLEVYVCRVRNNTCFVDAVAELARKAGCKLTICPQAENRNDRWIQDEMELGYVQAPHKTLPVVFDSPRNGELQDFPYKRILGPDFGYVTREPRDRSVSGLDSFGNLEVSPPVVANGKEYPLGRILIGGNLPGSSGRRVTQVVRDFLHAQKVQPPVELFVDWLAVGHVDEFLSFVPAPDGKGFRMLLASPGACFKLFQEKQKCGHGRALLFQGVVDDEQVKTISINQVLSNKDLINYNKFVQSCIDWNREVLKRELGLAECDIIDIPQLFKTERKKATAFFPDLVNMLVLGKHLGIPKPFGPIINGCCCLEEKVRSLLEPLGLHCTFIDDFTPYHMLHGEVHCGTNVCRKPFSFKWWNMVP
Description: co-IP; hNSC protein extract of control cells (no thapsigargin) precipitated with anti-PAD3 antibody (5 ug), Catch and Release kit; eluate analysed by Western blot. On the technique in general: Immunoblotting shows a protein as a band on a membrane.

Experiment [2] deals with T1, peptidylarginine deiminase 3 (PAD3) (human (endogenous in hNSCs)). Description: co-IP; hNSC protein extract (300-700 ug) of thapsigargin-treated cells precipitated with anti-PAD3 antibody (5 ug), Catch and Release kit; eluate analysed by Western blot.
In experiment [3] the target is apoptosis inducing factor (AIF) (human (endogenous in hNSCs)) (UniProt O95831). Nature of the experiment: co-IP; hNSC protein extract precipitated with anti-AIF antibody (2 ug), Catch and Release kit; eluate analysed by Western blot; treatment of the cells not told.

No constants are given. Whether binding was seen depends on the method and setting. In cells and extracts the contact can be indirect. Some results given as binding are weak or reduced against the parent protein; the word gives no strength.

With “apoptosis inducing factor (AIF) (from UniProt O95831 102-613)”, the binding entry is “no binding (condition: cells without thapsigargin)” in experiment [1] and “binds” in experiment [2].
In the case of vimentin (from UniProt P08670 1-466), the binding entry in experiment [3] is given as “binds”; in experiment [1] it was “no binding (condition: cells without thapsigargin)”; in experiment [2] it was “binds”.
